Assay results: PMC9928087, “Plasmids manipulate bacterial behaviour through translational regulatory crosstalk”
Positions count from the first letter of the chain named. For at least one entry, the source does not settle the construct or the ends of the probe. For some assays here: A negative result means that nothing was seen under these conditions. For some assays here: At least one verdict was read from the data and is not stated in words by the source. For some assays here: A weaker result is weaker than the reference pair of the same experiment. For some assays here: Protein sequences can lack the tags named with them.

Tests used:
[1] = test system: T1, RsmQ (Pseudomonas fluorescens SBW25 plasmid pQBR103); assay: SPR (ReDCaT); conditions: HBS-EP+ (10 mM HEPES, 150 mM NaCl, 3 mM EDTA, 0.05% v/v Tween 20, pH 7.4), 20 C, Biacore 8K, ReDCaT SA chip, high values mean tight binding, protein details: C-terminal TEV site + 6xHis, counted as no binding
T1 sequence (looked up, limits assumed): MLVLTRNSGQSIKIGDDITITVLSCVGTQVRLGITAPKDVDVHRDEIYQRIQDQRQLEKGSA

[2] = test system: T1, RsmQ (Pseudomonas fluorescens SBW25 plasmid pQBR103); assay: SPR; conditions: SPR (ReDCaT SA chip, Biacore 8K): 10 mM HEPES, 150 mM NaCl, 3 mM EDTA, 0.05% Tween 20, pH 7.4, 20 C, RsmQ 100 and 1000 nM (Fig 4: 100-1000 nM), recombinant protein, protein details: C-terminal TEV site + 6xHis
[3] = target: T2, RsmE (Pseudomonas fluorescens SBW25) (UniProt A0ACA7PAD1); assay: SPR (ReDCaT); conditions: 100 nM protein, HBS-EP+ (10 mM HEPES, 150 mM NaCl, 3 mM EDTA, 0.05% v/v Tween 20, pH 7.4), 20 C, Biacore 8K, ReDCaT SA chip, high values mean tight binding, recombinant protein, protein details: His tag (pET28a NdeI/XhoI), counted as no binding
T2 sequence (looked up, limits assumed): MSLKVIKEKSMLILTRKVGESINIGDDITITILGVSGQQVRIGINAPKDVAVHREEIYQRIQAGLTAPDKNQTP

[4] = test system: T3, RsmQ H43A (Pseudomonas fluorescens SBW25 plasmid pQBR103); assay: SPR (ReDCaT); conditions: 100 nM protein; HBS-EP+ (10 mM HEPES, 150 mM NaCl, 3 mM EDTA, 0.05% v/v Tween 20, pH 7.4), 20 C, Biacore 8K, ReDCaT SA chip; high values mean tight binding; recombinant protein; protein details: C-terminal TEV site + 6xHis; folded or branched DNA; counted as no binding
T3 sequence (looked up, limits assumed): T1 sequence (looked up, limits assumed) with H43A

[5] = test system: T4, RsmQ R44A (Pseudomonas fluorescens SBW25 plasmid pQBR103); assay: SPR (ReDCaT); conditions: 100 nM protein; HBS-EP+ (10 mM HEPES, 150 mM NaCl, 3 mM EDTA, 0.05% v/v Tween 20, pH 7.4), 20 C, Biacore 8K, ReDCaT SA chip; high values mean tight binding; recombinant protein; protein details: C-terminal TEV site + 6xHis; folded or branched DNA; counted as no binding
T4 sequence (looked up, limits assumed): T1 sequence (looked up, limits assumed) with R44A

[6] = recombinant …, single-stranded DNA, letters put together from the description
[7] = single-stranded DNA, letters put together from the description
[8] = 100 nM protein, recombinant protein, single-stranded DNA, letters put together from the description
[9] = linear, binds but dissociates quickly, single-stranded DNA
[10] = 100 nM protein, run beside RsmE, recombinant protein, folded or branched DNA
[11] = 100 nM protein, recombinant protein, folded or branched DNA
[12] = 100 nM protein, folded or branched DNA

AAAGCCCCGCTTCGGCGGGGTTTT [RsmY 95-end]
binding signal [1, 6]: -1.22 %Rmax

ATGGACGTCGCGCAGGAAGCGCAAACCTACCCTACGTCCTCCTGC [RsmY 1-25]
binding result ([2]; folded or branched DNA): binds

ATGTCAGGGAAACAGTCTGCAAAGC [RsmY 75-99]
binding signal [1, 6]: 0.723 %Rmax

CAAGACACCACAGAGCAGCA [NoBind_NoHP]
binding signal [3, 7]: -6.95 %Rmax | binding signal [1, 8]: 0.403 %Rmax

CAAGACACCCCAGAGCAGCA [NoBind_NoHP_2]
binding signal [3, 7]: -8.22 %Rmax | binding signal [1, 8]: -0.882 %Rmax

CAAGGAGACAGAGCAACAGGA [2bind_NoHP (2 x GGA linear)]
binding signal [3, 7]: -13 %Rmax

CAGGAAAGGACAGAGCACGGA [2Full_bind_NoHP (2 x ACGGA linear)]
binding signal [3, 7]: -13.4 %Rmax

CAGGAACGGACAGAGC [Full_Bind_NoHP (linear ACGGA)]
binding signal ([3]; single-stranded DNA): -10.4 %Rmax

CAGGAACGGACAGAGCCCTACCCTACGTCCTCCTGC [Full_Bind_NoHP (linear ACGGA)]
binding result [2, 9]: binds more weakly

CAGGACAGGACAGAGC [Bind_NoHP (linear GGA)]
binding signal ([3]; single-stranded DNA): -9.79 %Rmax

CAGGACAGGACAGAGCCCTACCCTACGTCCTCCTGC [Bind_NoHP (linear GGA)]
binding result [2, 9]: binds more weakly

CCGCGCACCAAGCGCAAAC [NoBind_HP]
binding signal ([3]; folded or branched DNA): -6.64 %Rmax | binding signal [1, 10]: -5.7 %Rmax | binding signal [1, 11]: 0.606 %Rmax | binding signal [4]: -2.17 %Rmax | binding signal [5]: -1.77 %Rmax

CCGCGCACCAAGCGCAAACCCTACCCTACGTCCTCCTGC [NoBind_HP]
binding result [2, 12]: no binding

CCGCGCACCCAGCGCAAAC [NoBind_HP_2]
binding signal ([3]; folded or branched DNA): -5.81 %Rmax | binding signal [1, 11]: 0.273 %Rmax | binding signal [4]: -2.51 %Rmax | binding signal [5]: -1.89 %Rmax

CCGCGCACCGAAGCGCAAAC [FullBind_ACCGA_HP]
binding signal ([3]; folded or branched DNA): -5.99 %Rmax | binding signal [1, 10]: -4.73 %Rmax | binding signal [1, 11]: -1.36 %Rmax

CCGCGCACCGAAGCGCAAACCCTACCCTACGTCCTCCTGC [FullBind_ACCGA_HP]
binding result [2, 12]: binds more weakly

CCGCGCACGAAGCGCAAAC [Bind_CGA_HP]
binding signal ([3]; folded or branched DNA): -6.54 %Rmax

CCGCGCACGAAGCGCAAACCCTACCCTACGTCCTCCTGC [Bind_CGA_HP]
binding result [2, 12]: binds more weakly

CCGCGCACGCAAGCGCAAAC [FullBind_ACGCA_HP]
binding signal ([3]; folded or branched DNA): -6.03 %Rmax | binding signal [1, 11]: 0.414 %Rmax

CCGCGCACGCAAGCGCAAACCCTACCCTACGTCCTCCTGC [FullBind_ACGCA_HP]
binding result [2, 12]: binds more weakly

CCGCGCACGGAAGCGCAACGGAAC [Full_2Bind_HP (2 x ACGGA hairpin)]
binding signal ([3]; folded or branched DNA, letters put together from the description): -6.47 %Rmax

CCGCGCACGGCAGCGCAAAC [FullBind_ACGGC_HP]
binding signal ([3]; folded or branched DNA): -5.83 %Rmax | binding signal [1, 11]: 1.4 %Rmax

CCGCGCACGGCAGCGCAAACCCTACCCTACGTCCTCCTGC [FullBind_ACGGC_HP]
binding result [2, 12]: binds more weakly

CCGCGCACGGTAGCGCAAAC [FullBind_ACGGT_HP]
binding signal ([3]; folded or branched DNA): -6.46 %Rmax | binding signal [1, 11]: 0.458 %Rmax
